Where two headings read alike, the source gives them in different places. For at least one compound, name, drawing or mass did not settle the structure. Marks after values point to notes of the source that are not given here.
What was measured:
D1/D2 = details: cited from earlier work
rats = experiment: Conditioned avoidance responding (CAR); details: FIG. 14

Structure (SMILES)	D1/D2 (D1/D2; NIMH PDSP Database certified data)	D1/D2 (D1/D2; Natesan et al., 2008)	effect of repeated treatment in CAR (rats)
CN1CCN(C2=Nc3cc(Cl)ccc3Nc3ccccc32)CC1 [Clozapine, reference compound]	0.438***	0.660*	–
Cc1cc2c(s1)Nc1ccccc1N=C2N1CCN(C)CC1 [olanzapine, reference compound]	–	–	sensitization
